These are yes or no findings as the source states them, for the method shown. Some entries that bind do so weakly or less than the wild type. Sequences can lack the tags named with a protein.
Target: T1, Entamoeba histolytica deoxyhypusine synthase 1 (EhDHS1) with amino-terminal His-tag, co-expressed with EhDHS2 (Entamoeba histolytica) (UniProt C4LXB8)
T1 sequence: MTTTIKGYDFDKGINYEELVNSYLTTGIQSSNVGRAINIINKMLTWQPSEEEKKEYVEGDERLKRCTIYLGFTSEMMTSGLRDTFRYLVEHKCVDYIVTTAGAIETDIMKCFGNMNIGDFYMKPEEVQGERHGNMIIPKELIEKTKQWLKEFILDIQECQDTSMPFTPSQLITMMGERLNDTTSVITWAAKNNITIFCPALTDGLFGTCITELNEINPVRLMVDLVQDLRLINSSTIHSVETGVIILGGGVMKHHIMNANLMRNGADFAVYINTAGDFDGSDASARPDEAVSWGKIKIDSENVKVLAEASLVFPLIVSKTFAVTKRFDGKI
Assay: native gel or EMSA; About 10 μg of co-expressed, copurified EhDHS1/2 on a 4-16% BN-PAGE gel (NativePAGE Novex Bis-Tris); destained gel and immunoblot with anti-His and anti-S tag antibodies; both purified

B1: Entamoeba histolytica deoxyhypusine synthase 2 (EhDHS2) with carboxyl-terminal S-tag, co-expressed with EhDHS1 (natural protein, UniProt C4M2N7 1-336, looked up)
chain: MSITGEEFAKVTSKVLGESKEYKGEKCIGYDFDNGVDFNKVMEKMKYTGFQALNLGLCIEQVNEMRKNHAKIFLGMSSNIVSSGLREVIHYLVKNKFVDAIVVTAGGIEEDFIKTMHPTLLGDFYFKGKELYPNGYNRIGNLILPNSNYCEFEDWMDPLLLECLKEQNEHGVHWTPSKLVHKMGESINNESSIYYWAAKNNIPVFSPAITDGSIGDMIFFFSYKNEGLVLDLVQDVIKIDEMAFNAEKVGCLLVGAGIAKHHILNAMKRRGGCDYCAMLSTSIECDASDAGSEIAADRTKGFFKPECNPAKVIGDATILLPLIVASTFAQKEEPTK
notes: Deoxyhypusine synthase isotype 2 (EhDHS2) of Entamoeba histolytica, EHI_006030, XP_653426; stop codon removed to fuse the C-terminal S-tag of pETDuet; also called S-tag DHS2; EHI_006030; source: E. coli BL21 (DE3), co-expressed with EhDHS1 from pETDuet-EhDHS1/2; in lysate and copurified on Ni2+-NTA; not shown: S-tag, C-terminal, kept
B1 was tested, and the binding was “binds”.
